Experiment [1] concerns the target HA-STING (exogenously expressed STING) (UniProt Q86WV6). In words: co-IP; exogenously expressed tagged proteins in transfected cells; IP lysis buffer, 1 ug antibody overnight at 4 °C, protein A/G beads 2 h, western blot; in Fig. 4F with or without overexpressed HA-NSDHL.
In the next experiment the target is GST-STING fusion protein (UniProt Q86WV6). In words: pull-down; 10 ug GST-STING fusion protein added to cholangiocarcinoma cell lysate supernatant overnight at 4 °C, glutathione Sepharose 4B beads 4 h, washed in 50 mM Tris-HCl pH 8.0, 150 mM NaCl, 1 % NP-40; western blot; only the target purified. A general note: A western blot detects proteins with antibodies after separation by electrophoresis.

Chains of the proteins cited; added tags and fusions are not shown.
UniProt Q86WV6: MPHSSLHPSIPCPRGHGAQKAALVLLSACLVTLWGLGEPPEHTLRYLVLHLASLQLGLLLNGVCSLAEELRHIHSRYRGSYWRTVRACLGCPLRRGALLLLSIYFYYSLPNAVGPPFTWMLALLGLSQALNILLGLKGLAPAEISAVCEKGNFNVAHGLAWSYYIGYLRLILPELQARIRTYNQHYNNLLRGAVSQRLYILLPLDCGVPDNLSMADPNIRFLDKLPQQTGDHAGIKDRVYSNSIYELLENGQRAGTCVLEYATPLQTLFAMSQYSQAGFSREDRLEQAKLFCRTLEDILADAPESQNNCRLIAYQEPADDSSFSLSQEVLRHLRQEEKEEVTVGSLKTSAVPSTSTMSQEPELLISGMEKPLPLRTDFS

Experiment [2] concerns the target endogenously expressed STING (human (endogenous in cholangiocarcinoma cells)) (UniProt Q86WV6). The experiment in a line: co-IP; endogenous proteins in cholangiocarcinoma cell lysate; anti-STING antibody (stated for Fig. 3D and 4E), protein A/G beads, western blot.

No constants are given. Whether binding was seen depends on the method and setting. In cells and extracts the contact can be indirect. Some binding calls cover weakened binding; strength is not graded here. For part of these data: Sequences can lack the tags named with a protein.

B1: Flag-NSDHL (exogenously expressed NSDHL) (enzyme, UniProt Q15738 1-373)
chain: MEPAVSEPMRDQVARTHLTEDTPKVNADIEKVNQNQAKRCTVIGGSGFLGQHMVEQLLARGYAVNVFDIQQGFDNPQVRFFLGDLCSRQDLYPALKGVNTVFHCASPPPSSNNKELFYRVNYIGTKNVIETCKEAGVQKLILTSSASVIFEGVDIKNGTEDLPYAMKPIDYYTETKILQERAVLGANDPEKNFLTTAIRPHGIFGPRDPQLVPILIEAARNGKMKFVIGNGKNLVDFTFVENVVHGHILAAEQLSRDSTLGGKAFHITNDEPIPFWTFLSRILTGLNYEAPKYHIPYWVAYYLALLLSLLVMVISPVIQLQPTFTPMRVALAGTFHYYSCERAKKAMGYQPLVTMDDAMERTVQSFRHLRRVK
Regarding B1, the binding result in experiment [1] is listed as “binds”.

B2: endogenously expressed NSDHL (enzyme, UniProt Q15738 1-373)
chain: B1 chain
As to B2, the binding result (with GST-STING fusion protein; in experiment [2]) was “binds” each time.

The record behind these values is article PMC11407059.
